The other results are listed elsewhere or left out. The data scatter; read single values as rough.

Chains of the proteins cited; added tags and fusions are not shown. Lines headed by an entry give the natural chain unless they say otherwise; changes in a name come on top.
UniProt Q99442: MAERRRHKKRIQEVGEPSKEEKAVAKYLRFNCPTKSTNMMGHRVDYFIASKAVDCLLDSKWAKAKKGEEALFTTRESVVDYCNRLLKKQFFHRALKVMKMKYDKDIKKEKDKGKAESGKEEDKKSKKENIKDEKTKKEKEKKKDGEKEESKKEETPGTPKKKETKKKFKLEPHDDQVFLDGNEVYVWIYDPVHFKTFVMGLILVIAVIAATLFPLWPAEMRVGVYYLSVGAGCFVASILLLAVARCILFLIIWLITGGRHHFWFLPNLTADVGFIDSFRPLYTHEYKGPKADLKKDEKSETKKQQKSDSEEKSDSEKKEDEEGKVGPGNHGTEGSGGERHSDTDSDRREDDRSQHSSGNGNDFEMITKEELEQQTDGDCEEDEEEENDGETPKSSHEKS
UniProt Q9BY12: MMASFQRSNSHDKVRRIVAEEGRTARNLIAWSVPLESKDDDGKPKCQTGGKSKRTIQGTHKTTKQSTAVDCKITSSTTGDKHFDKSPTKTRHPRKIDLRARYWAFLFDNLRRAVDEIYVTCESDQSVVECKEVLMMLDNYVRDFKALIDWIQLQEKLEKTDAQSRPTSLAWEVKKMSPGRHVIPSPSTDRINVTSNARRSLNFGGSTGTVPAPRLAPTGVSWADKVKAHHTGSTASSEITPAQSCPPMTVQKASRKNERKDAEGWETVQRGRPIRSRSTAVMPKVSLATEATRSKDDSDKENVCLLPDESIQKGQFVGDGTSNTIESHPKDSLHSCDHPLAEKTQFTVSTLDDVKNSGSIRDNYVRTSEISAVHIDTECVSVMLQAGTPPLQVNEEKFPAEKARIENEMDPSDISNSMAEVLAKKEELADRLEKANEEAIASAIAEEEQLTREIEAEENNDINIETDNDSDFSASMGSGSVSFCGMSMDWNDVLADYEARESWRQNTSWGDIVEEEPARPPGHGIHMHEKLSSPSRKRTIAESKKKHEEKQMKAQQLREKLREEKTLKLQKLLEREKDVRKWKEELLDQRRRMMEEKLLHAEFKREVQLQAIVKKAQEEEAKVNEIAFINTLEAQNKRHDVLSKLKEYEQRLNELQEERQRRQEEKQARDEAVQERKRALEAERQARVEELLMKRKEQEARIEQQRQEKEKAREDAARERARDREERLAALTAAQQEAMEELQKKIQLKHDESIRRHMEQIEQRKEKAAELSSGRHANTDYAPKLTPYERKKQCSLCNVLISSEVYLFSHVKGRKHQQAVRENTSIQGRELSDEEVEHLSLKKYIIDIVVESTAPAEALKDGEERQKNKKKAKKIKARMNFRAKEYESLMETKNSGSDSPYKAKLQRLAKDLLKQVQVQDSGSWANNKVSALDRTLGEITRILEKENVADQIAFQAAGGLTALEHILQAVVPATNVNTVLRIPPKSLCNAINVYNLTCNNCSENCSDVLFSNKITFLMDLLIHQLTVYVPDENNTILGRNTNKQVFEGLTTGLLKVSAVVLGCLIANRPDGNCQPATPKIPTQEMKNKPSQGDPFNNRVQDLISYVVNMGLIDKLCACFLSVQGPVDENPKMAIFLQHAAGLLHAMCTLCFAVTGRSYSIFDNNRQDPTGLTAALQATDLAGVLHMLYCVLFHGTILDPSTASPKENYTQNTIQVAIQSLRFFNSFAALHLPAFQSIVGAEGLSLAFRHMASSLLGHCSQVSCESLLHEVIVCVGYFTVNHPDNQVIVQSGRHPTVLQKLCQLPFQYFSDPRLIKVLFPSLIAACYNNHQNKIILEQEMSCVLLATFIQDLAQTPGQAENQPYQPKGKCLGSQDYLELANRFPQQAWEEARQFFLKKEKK
UniProt Q15436: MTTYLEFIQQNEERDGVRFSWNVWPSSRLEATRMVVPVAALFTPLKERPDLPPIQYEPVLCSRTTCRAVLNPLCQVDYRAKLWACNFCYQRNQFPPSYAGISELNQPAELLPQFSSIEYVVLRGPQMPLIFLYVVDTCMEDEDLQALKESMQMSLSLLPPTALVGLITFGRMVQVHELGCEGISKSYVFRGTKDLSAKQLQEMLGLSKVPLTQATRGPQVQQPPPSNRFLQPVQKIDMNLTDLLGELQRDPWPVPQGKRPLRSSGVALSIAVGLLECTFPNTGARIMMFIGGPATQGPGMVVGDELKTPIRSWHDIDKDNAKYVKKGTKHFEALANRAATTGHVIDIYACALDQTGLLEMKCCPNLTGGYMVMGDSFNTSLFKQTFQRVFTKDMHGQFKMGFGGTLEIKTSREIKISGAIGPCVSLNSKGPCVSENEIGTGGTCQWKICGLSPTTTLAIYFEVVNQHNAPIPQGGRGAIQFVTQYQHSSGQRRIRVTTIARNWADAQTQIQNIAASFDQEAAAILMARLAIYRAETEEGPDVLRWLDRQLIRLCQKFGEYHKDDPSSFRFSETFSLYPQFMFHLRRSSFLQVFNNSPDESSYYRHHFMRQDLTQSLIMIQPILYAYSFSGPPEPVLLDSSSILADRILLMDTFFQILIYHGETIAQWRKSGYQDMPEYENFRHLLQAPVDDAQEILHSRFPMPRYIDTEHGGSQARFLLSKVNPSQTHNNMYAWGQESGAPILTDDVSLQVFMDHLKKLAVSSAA
UniProt O43765: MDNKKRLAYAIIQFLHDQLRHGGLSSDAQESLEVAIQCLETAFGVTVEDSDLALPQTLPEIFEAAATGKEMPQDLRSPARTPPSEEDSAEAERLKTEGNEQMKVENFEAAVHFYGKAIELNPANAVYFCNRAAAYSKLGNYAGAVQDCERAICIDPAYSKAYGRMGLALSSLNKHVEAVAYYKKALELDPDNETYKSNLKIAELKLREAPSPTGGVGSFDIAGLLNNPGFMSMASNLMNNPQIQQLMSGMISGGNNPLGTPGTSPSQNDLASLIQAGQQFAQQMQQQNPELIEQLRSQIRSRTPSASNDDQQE
UniProt Q9BX95: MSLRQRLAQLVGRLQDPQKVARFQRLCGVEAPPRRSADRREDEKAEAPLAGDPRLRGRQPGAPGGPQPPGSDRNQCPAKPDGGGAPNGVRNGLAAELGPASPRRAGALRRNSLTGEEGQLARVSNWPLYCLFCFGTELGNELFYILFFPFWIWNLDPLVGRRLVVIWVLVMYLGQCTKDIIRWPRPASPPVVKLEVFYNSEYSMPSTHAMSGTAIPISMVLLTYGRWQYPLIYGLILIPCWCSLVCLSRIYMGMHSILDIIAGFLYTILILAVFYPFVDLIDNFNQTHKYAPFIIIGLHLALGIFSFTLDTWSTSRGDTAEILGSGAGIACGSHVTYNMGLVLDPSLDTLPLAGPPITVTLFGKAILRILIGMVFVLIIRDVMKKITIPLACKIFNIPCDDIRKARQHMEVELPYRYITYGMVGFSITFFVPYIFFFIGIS
UniProt P60468, whole entry, looked up: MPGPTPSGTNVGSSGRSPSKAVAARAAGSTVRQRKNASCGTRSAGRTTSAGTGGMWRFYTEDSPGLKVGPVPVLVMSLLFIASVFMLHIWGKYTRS
UniProt Q15459: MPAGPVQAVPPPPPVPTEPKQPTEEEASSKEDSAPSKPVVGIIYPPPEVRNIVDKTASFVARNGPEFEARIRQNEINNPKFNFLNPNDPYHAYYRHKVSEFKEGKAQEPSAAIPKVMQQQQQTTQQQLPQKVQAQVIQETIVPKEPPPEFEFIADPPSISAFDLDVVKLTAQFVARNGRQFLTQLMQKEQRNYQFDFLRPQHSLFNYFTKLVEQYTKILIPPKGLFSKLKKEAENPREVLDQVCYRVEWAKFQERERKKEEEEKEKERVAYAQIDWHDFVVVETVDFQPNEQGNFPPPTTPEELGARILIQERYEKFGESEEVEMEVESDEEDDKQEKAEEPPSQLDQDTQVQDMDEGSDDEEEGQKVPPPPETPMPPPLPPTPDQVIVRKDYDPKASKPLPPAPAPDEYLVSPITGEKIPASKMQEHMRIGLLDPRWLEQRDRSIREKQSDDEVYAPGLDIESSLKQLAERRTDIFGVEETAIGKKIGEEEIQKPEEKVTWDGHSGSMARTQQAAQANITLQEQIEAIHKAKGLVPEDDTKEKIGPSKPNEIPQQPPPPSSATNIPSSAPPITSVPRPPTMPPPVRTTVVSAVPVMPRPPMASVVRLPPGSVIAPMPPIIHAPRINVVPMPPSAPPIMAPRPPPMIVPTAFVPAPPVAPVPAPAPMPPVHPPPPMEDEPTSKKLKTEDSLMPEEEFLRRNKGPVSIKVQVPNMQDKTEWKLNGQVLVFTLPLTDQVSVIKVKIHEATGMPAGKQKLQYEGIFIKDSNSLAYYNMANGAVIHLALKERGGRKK
UniProt Q9NP50: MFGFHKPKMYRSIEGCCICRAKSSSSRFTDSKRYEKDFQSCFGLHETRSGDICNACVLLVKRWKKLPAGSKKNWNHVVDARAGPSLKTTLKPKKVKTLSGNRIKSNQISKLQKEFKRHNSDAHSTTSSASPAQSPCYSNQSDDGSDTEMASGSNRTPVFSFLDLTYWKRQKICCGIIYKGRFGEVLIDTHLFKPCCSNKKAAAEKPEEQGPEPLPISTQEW
UniProt Q5TCZ1: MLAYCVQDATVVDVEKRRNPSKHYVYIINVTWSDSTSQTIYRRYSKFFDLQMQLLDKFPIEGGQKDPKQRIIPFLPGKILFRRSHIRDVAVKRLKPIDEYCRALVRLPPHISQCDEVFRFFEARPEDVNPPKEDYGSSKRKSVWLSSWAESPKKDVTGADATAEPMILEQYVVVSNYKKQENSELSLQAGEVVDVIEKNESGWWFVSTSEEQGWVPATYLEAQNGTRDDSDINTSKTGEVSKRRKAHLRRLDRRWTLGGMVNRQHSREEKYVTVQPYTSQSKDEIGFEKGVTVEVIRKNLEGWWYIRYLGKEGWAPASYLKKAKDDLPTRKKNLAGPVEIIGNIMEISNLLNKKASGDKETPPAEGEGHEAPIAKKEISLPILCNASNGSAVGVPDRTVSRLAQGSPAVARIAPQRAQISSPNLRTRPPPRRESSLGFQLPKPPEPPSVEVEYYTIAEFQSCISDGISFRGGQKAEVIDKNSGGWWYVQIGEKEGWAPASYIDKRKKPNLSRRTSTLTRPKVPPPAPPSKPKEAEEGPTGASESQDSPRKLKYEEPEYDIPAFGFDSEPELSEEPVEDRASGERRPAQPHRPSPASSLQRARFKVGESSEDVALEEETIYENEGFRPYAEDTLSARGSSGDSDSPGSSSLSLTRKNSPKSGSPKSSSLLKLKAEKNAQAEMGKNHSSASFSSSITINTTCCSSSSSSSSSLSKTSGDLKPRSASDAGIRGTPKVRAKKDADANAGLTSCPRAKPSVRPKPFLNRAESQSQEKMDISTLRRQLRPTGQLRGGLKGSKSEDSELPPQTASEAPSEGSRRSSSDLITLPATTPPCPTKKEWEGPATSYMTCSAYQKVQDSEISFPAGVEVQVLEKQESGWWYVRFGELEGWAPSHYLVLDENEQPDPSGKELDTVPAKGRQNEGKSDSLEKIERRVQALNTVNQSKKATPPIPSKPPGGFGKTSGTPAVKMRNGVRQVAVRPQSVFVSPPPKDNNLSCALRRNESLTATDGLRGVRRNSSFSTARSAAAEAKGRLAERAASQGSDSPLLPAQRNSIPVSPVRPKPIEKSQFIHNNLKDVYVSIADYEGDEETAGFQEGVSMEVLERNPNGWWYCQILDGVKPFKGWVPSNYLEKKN
UniProt Q9P0V3: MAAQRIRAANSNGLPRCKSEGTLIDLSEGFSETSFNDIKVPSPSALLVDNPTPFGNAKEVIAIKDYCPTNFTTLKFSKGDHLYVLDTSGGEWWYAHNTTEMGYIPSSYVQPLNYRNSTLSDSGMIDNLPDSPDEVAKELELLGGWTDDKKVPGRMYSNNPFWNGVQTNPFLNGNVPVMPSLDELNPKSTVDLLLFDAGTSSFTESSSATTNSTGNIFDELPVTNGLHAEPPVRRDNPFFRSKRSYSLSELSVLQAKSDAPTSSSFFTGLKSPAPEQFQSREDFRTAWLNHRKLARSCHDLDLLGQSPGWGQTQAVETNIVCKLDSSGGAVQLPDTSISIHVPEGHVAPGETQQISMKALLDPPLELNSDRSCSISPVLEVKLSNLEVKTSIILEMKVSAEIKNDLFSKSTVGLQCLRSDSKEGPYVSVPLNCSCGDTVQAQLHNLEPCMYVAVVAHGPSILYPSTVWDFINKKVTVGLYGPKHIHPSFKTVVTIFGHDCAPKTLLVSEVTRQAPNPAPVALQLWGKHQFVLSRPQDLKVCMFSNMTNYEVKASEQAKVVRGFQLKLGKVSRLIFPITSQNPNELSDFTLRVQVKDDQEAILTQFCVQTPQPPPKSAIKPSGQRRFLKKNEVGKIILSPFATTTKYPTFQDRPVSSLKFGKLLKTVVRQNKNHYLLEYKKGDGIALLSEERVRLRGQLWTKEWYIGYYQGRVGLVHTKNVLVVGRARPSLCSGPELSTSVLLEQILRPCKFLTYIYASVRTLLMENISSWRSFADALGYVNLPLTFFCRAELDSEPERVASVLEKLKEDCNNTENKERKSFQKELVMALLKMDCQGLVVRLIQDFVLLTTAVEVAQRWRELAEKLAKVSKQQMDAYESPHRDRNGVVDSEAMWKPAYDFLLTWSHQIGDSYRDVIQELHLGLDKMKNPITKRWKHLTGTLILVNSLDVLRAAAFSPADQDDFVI

Here are results for 20 targets from the supplement of paper PMC11732987, “Enantioselective OTUD7B fragment discovery through chemoproteomics screening and high-throughput optimisation” (Communications Chemistry, 2025).

Compound in one assay: ClCC(=O)N[C@H]1CCCc2ccccc12
In words: log2 mean competition ratio of IA-DTB cysteine labelling (DMSO/compound) (log2 ratio); higher = stronger cysteine engagement by compound. The note with it: 50 µM; treatment time: 4 h; cell line lysate: HEK293T. The procedure:
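IA-DTB competitive cysteine chemoproteomics in HEK293T RIPA lysate. Lysates were treated with compound 29 or 30 at 50 or 200 µM for 4 h, then IA-DTB (500 µM, 1 h), trypsin-digested, NeutrAvidin-enriched and analysed by diaPASEF. Competition ratio = intensity DMSO / intensity compound (n=4 treated, n=64 DMSO); binding: mean log2 CR ≥ 1 and p ≤ 0.05 plus QC filters. Target is the cysteine site.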
As for SEC62 C82 (UniProt Q99442), the “log2 mean competition ratio” value was 0.0287.
Take SETD5 C1050: the “log2 mean competition ratio” value came to 0.134.
With SCAPER C71 (UniProt Q9BY12), the “log2 mean competition ratio” value is -0.146.
Same read-out and setting: in the case of SF1 C171 it was -0.319.
On the same count and under the same terms, the result for SHB C115 (UniProt Q15464) reads 0.252; that for SASS6 C94 (UniProt Q6UVJ0), -0.789.
The same measure, in the same setting: in the case of SEC23A C180 (UniProt Q15436) it was -0.577.
For the target SGTA C129 (UniProt O43765), the “log2 mean competition ratio” value was 0.0807.
Consider SGPP1 C76 (UniProt Q9BX95), for which the “log2 mean competition ratio” value is 0.0489.
For the target SEC61B C39 (UniProt P60468), the “log2 mean competition ratio” value was determined as 0.0917.
For the target SF3A1 C244 (UniProt Q15459), the “log2 mean competition ratio” value is 0.173.
SHMT2 C80: the “log2 mean competition ratio” value is -0.0807.
Same read-out and setting: the result for SH2B1 C587 (UniProt Q9NRF2) reads -0.249; that for SEC31A C704, 0.178.
For SESTD1 C482 (UniProt Q86VW0), the “log2 mean competition ratio” value was determined as 0.255.
Take SCARF2 C350: the “log2 mean competition ratio” value is 0.165.
The same measure, in the same setting: the result for SEMA6A C787 reads 0.324.
Turning to SINHCAF C41 (UniProt Q9NP50), the “log2 mean competition ratio” value is -0.0165.
Still for that read-out and setting: in the case of SH3PXD2A C832 (UniProt Q5TCZ1) it was 0.202.
Still for that read-out and setting: in the case of SH3BP4 C415 (UniProt Q9P0V3) it was 0.364.

The same assay, now with this note: 200 µM; treatment time: 4 h; cell line lysate: HEK293T.
With SEC62 C82 (UniProt Q99442), the “log2 mean competition ratio” value was found to be 0.075.
Regarding SETD5 C1050, the “log2 mean competition ratio” value stood at 0.00391.
The same measure, in the same setting: the result for SCAPER C71 (UniProt Q9BY12) reads 0.322; that for SF1 C171, 0.306.
Turning to SHB C115 (UniProt Q15464), the “log2 mean competition ratio” value came to 0.202.
On the same count and under the same terms, in the case of SASS6 C94 (UniProt Q6UVJ0) it was -0.111; in that of SEC23A C180 (UniProt Q15436), -0.165; in that of SGTA C129 (UniProt O43765), 0.0062.
With SGPP1 C76 (UniProt Q9BX95), the “log2 mean competition ratio” value was -0.608.
On the same count and under the same terms, the result for SEC61B C39 (UniProt P60468) reads 0.0987; that for SF3A1 C244 (UniProt Q15459), -0.161; that for SHMT2 C80, 0.404.
Consider SH2B1 C587 (UniProt Q9NRF2), for which the “log2 mean competition ratio” value amounted to 0.661.
On to SEC31A C704, for which the “log2 mean competition ratio” value came to 0.0138.
On the same count and under the same terms, in the case of SESTD1 C482 (UniProt Q86VW0) it was 0.272; in that of SCARF2 C350, 0.213; in that of SEMA6A C787, 0.0327.
As for SINHCAF C41 (UniProt Q9NP50), the “log2 mean competition ratio” value stood at 0.108.
In the case of SH3PXD2A C832 (UniProt Q5TCZ1), the “log2 mean competition ratio” value is -0.211.
In the case of SH3BP4 C415 (UniProt Q9P0V3), the “log2 mean competition ratio” value worked out at 0.105.
